No constants are given. Whether binding was seen depends on the method and setting. In cells and extracts the contact can be indirect. Some results given as binding are weak or reduced against the parent protein; the word gives no strength. For some assays here: Tags and fused reporters may be left off the sequences shown.
Columns and labels:
[1] = target: T1, Psh1-13Myc (S. cerevisiae (budding yeast)) (UniProt Q12161); experiment: co-IP; anti-Myc (A-14, SC-789) on Protein G Dynabeads from extracts of yeast strains with Psh1-13Myc or Ino80-13Myc and overexpressed 3Flag-Cse4, gradient SDS-PAGE and immunoblot; Ino80-13Myc strains with PSH1 and with psh1Δ
T1 sequence: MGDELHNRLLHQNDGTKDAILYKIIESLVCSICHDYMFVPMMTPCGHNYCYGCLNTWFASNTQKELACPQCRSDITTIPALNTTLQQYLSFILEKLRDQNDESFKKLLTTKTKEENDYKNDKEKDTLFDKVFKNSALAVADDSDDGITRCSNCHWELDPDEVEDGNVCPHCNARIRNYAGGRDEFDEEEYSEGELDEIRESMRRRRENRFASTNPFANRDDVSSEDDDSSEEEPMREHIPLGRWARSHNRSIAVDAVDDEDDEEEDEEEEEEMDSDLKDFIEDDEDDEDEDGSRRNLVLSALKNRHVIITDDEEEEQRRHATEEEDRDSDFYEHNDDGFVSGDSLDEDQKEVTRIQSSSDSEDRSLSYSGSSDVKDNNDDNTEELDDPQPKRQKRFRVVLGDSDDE

By UniProt entry, the sequences of proteins in these tests, tags left out.
UniProt P53115: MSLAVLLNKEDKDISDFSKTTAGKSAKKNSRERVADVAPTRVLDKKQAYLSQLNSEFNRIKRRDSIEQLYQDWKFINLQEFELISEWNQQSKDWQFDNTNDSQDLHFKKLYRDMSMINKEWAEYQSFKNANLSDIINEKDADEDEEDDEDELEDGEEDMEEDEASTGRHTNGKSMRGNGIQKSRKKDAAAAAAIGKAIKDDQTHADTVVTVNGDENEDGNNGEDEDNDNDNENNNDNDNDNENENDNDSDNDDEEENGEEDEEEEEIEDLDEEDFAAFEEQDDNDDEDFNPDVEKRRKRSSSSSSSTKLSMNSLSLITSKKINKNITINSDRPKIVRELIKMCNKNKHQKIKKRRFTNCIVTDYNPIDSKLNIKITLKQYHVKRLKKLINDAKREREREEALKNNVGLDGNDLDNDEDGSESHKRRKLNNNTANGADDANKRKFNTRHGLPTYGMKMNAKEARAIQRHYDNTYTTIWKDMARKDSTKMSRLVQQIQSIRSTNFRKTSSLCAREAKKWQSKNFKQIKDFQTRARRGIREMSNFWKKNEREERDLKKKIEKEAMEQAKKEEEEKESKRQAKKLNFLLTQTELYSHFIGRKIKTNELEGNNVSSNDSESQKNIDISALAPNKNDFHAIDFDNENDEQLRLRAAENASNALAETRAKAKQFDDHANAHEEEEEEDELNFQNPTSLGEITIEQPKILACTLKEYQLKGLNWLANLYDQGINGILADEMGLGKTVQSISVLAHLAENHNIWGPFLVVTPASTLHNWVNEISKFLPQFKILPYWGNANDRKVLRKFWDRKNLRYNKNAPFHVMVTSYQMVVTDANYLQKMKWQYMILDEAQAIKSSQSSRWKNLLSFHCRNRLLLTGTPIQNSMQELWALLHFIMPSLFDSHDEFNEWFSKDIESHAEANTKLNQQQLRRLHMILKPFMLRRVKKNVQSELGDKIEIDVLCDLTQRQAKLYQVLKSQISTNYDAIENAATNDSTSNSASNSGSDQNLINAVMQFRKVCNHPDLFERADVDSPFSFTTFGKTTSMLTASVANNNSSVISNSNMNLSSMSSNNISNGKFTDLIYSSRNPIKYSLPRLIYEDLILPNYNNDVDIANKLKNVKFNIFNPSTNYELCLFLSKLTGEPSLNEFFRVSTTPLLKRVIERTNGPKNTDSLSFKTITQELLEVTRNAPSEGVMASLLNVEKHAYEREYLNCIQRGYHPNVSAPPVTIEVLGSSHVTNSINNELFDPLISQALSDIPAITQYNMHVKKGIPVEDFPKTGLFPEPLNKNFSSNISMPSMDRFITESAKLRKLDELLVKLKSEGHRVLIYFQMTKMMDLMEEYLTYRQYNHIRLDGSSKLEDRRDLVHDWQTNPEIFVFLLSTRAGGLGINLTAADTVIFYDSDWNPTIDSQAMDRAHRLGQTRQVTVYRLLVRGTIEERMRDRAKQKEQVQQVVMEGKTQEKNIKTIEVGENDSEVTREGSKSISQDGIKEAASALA
UniProt P36012: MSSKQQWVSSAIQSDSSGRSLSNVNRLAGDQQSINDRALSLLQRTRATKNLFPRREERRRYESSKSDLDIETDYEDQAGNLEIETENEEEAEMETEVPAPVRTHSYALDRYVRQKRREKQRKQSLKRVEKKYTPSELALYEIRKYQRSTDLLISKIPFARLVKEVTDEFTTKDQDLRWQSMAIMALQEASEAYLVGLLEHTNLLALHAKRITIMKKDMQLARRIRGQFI

[2] = target: Ino80-13Myc (S. cerevisiae (budding yeast)) (UniProt P53115); experiment: as above

binding [1]: binds | binding [2]: binds
Substance: 3Flag-Cse4 (budding yeast CENP-A, overexpressed from pGAL-3Flag-CSE4) (from UniProt P36012 1-229)

Source: publication PMC4794243
